Results: PubChem BioAssay AID248 (DTP/NCI, 2004)
The list does not hold the whole screen: it gathers tests that were run many times, whatever their T/C, doses with no T/C, and many T/C values between a quarter and a half above the control. Other doses and runs of a compound stand elsewhere. T/C gives the treated animals as a percentage of the vehicle group. Some doses have a count of surviving animals in place of a T/C: the source files T/C as zero there, which appears to mark a toxic dose or a test without result, not a measured value. Some doses without a T/C left all or most animals alive at the check, yet need not have been tolerated: the source hardly ever lists a survival T/C far under the control, and the zero likely stands for such cases as well. Survivors were counted at the toxicity check, usually on the fifth day, unless a day is given; later deaths do not show. Schedule codes are those of the source, read here as Q, the interval in days (D) or hours (H), X, the number of doses. Some schedule codes hold Z or #, which are not explained here. Some molecules as drawn cover several salts, stereoisomers or complexes of the source; a dose is that of the sample tested. For survival time, the PubChem record calls one and a half times the control and up active, and a quarter to a half above the control has no call in these data; cut-offs in other NCI protocols can differ. Some doses were run more than once; the values are given in rising order. Counts like (3×) stand for listed records that agree. Some T/C values are followed by the survivors on the day toxicity was checked, most often the fifth; where none is given, no animal had died by that day.

Test system: L1210 leukemia ip in BDF1 mice, survival T/C
Assay: NCI In Vivo Anticancer Drug Screen. Data for tumor model L1210 Leukemia (intraperitoneal) in B6D2F1 (BDF1) mice
Conditions: T/C endpoint: mean survival time, higher T/C = longer survival
[1] = dose: 51.75 mg/kg/injection, schedule: Q02DX010 (ip), vehicle: carboxymethylcellulose (CMC)
[2] = dose: 100.0 mg/kg/injection, schedule: Q01DX001 (ip), vehicle: saline
[3] = dose: 400.0 mg/kg/injection, schedule: Q01DX001 (ip), vehicle: saline

SMILES: NC(=S)N/N=C/c1ccccn1
- T/C (dose: 2.6 mg/kg/injection, schedule: Q01DX Z (ip), vehicle: carboxymethylcellulose (CMC)): 125 % of control
- survivor count (dose: 2.6 mg/kg/injection, schedule: Q03HX024 (ip), vehicle: carboxymethylcellulose (CMC)): 9 of 10
- T/C (dose: 2.6 mg/kg/injection, schedule: Q03HX024 (ip), vehicle: other): 137 % of control
- T/C (dose: 2.6 mg/kg/injection, schedule: Q03HX032 (ip), vehicle: other): 147 % of control
- T/C (dose: 3.7 mg/kg/injection, schedule: Q01DX009 (ip), vehicle: saline with Tween-80): 127 and 132 % of control
- T/C (dose: 3.8 mg/kg/injection, schedule: Q01DX009 (ip), vehicle: saline with Tween-80): 134 % of control
- T/C (dose: 4.0 mg/kg/injection, schedule: Q03HX032 (ip), vehicle: other): 215, 260, 262, 342 % of control
- T/C (dose: 4.4 mg/kg/injection, schedule: Q01DX009 (ip), vehicle: other): 148 % of control
- T/C (dose: 5.3 mg/kg/injection, schedule: Q01DX Z (ip), vehicle: carboxymethylcellulose (CMC)): 145 % of control
- survivor count (dose: 6.0 mg/kg/injection, schedule: Q03HX024 (ip), vehicle: carboxymethylcellulose (CMC)): 10 of 10
- T/C (dose: 6.0 mg/kg/injection, schedule: Q03HX024 (ip), vehicle: other): 145 % of control
- T/C (dose: 6.0 mg/kg/injection, schedule: Q03HX032 (ip), vehicle: other): 364 [9 of 10 alive], 368, 373 [8 of 9 alive], 447 % of control
- T/C (dose: 6.5 mg/kg/injection, schedule: Q02DX010 (ip), vehicle: carboxymethylcellulose (CMC)): 125 % of control
- T/C (dose: 6.6 mg/kg/injection, schedule: Q02DX010 (ip), vehicle: carboxymethylcellulose (CMC)): 129 % of control
- T/C (dose: 6.7 mg/kg/injection, schedule: Q01DX009 (ip), vehicle: other): 147 % of control
- T/C (dose: 6.7 mg/kg/injection, schedule: Q01DX009 (ip), vehicle: saline): 133 % of control [5 of 6 alive]
- T/C (dose: 7.5 mg/kg/injection, schedule: Q01DX009 (ip), vehicle: saline with Tween-80): 140, 144, 146, 165 % of control
- survivor count (dose: 8.0 mg/kg/injection, schedule: Q03HX008 (ip), vehicle: other): 5 of 10
- survivor count (dose: 8.0 mg/kg/injection, schedule: Q03HX016 (ip), vehicle: other): 5 of 10
- survivor count (dose: 8.0 mg/kg/injection, schedule: Q03HX024 (ip), vehicle: other): 7 of 10
- survivor count (dose: 9.0 mg/kg/injection, schedule: Q03HX024 (ip), vehicle: carboxymethylcellulose (CMC)): 3 of 10
- survivor count (dose: 9.0 mg/kg/injection, schedule: Q03HX024 (ip), vehicle: other): 4 of 10
- T/C (dose: 9.89 mg/kg/injection, schedule: Q02DX010 (ip), vehicle: carboxymethylcellulose (CMC)): 119 (2×), 123, 130, 132, 134 % of control
- T/C (dose: 10.0 mg/kg/injection, schedule: Q02DX010 (ip), vehicle: carboxymethylcellulose (CMC)): 125 and 127 % of control
- T/C (dose: 10.0 mg/kg/injection, schedule: Q03HX032 (ip), vehicle: other): 132 % of control [7 of 10 alive]
- survivor count (dose: 11.0 mg/kg/injection, schedule: Q01DX015 (ip), vehicle: saline): 4 of 6
- survivor count (dose: 12.0 mg/kg/injection, schedule: Q03HX008 (ip), vehicle: other): 0 of 10
- survivor count (dose: 12.0 mg/kg/injection, schedule: Q03HX016 (ip), vehicle: other): 1 of 10
- survivor count (dose: 12.0 mg/kg/injection, schedule: Q03HX024 (ip), vehicle: other): 1 of 10
- T/C (dose: 15.0 mg/kg/injection, schedule: Q01DX009 (ip), vehicle: saline with Tween-80): 150, 160, 173, 175 % of control
- T/C (dose: 15.0 mg/kg/injection, schedule: Q01DX015 (ip), vehicle: other): 127 % of control [9 of 10 alive]
- T/C (dose: 15.4 mg/kg/injection, schedule: Q02DX010 (ip), vehicle: carboxymethylcellulose (CMC)): 109, 116, 120, 124, 132, 150 % of control
- survivor count (dose: 18.0 mg/kg/injection, schedule: Q03HX008 (ip), vehicle: other): 0 of 10
- survivor count (dose: 18.0 mg/kg/injection, schedule: Q03HX016 (ip), vehicle: other): 0 of 10
- survivor count (dose: 18.0 mg/kg/injection, schedule: Q03HX024 (ip), vehicle: other): 0 of 10
- T/C (dose: 22.5 mg/kg/injection, schedule: Q01DX009 (ip), vehicle: other): 136 % of control [9 of 10 alive]
- survivor count (dose: 22.5 mg/kg/injection, schedule: Q01DX015 (ip), vehicle: other): 9 of 10
- T/C (dose: 22.5 mg/kg/injection, schedule: Q02DX010 (ip), vehicle: carboxymethylcellulose (CMC)): 134 % of control
- T/C (dose: 23.0 mg/kg/injection, schedule: Q02DX010 (ip), vehicle: carboxymethylcellulose (CMC)): 84, 86, 98, 107, 125, 127 % of control
- survivor count (dose: 30.0 mg/kg/injection, schedule: Q01DX009 (ip), vehicle: saline with Tween-80): 2 of 3
- T/C (dose: 34.5 mg/kg/injection, schedule: Q02DX010 (ip), vehicle: carboxymethylcellulose (CMC)): 65, 80, 89, 90, 112, 122 % of control
- survivor count (dose: 37.5 mg/kg/injection, schedule: Q01DX015 (ip), vehicle: saline): 1 of 6
- survivor count (dose: 50.0 mg/kg/injection, schedule: Q01DX001 (ip), vehicle: other): 5 of 10
- T/C [1]: 75, 89, 113 % of control
- survivor count [1]: 6 of 6
- survivor count (dose: 74.0 mg/kg/injection, schedule: Q01DX001 (ip), vehicle: other): 2 of 10

SMILES: CC(=O)Nc1cccc([As](=O)(c2cccc(NC(C)=O)c2)c2cccc(NC(C)=O)c2)c1
- survivor count (dose: 83.0 mg/kg/injection, schedule: Q01DX Z (ip), vehicle: methylcellulose (MC)): 6 of 6

SMILES: O=C1Nc2ccc(Br)cc2C1(O)Cc1cccc([N+](=O)[O-])c1 (stereo not given)
- survivor count (dose: 400.0 mg/kg/injection, schedule: Q04DX002 (ip), vehicle: saline with Tween-80): 3 of 3

SMILES: CC(=O)N/N=C/C=C/c1ccccc1
- survivor count (dose: 12.5 mg/kg/injection, schedule: Q01DX009 (ip), vehicle: saline with Tween-80): 3 of 3
- survivor count (dose: 50.0 mg/kg/injection, schedule: Q01DX009 (ip), vehicle: saline with Tween-80): 1 of 3
- survivor count (dose: 100.0 mg/kg/injection, schedule: Q01DX009 (ip), vehicle: saline with Tween-80): 0 of 3
- survivor count (dose: 200.0 mg/kg/injection, schedule: Q01DX009 (ip), vehicle: saline with Tween-80): 0 of 3

SMILES: O=C(N/N=C/C(CC(O)C(O)CO)=N/NC(=O)c1ccc(Cl)cc1)c1ccc(Cl)cc1 (stereo not given)
- survivor count (dose: 400.0 mg/kg/injection, schedule: Q01DX009 (ip), vehicle: Klucel (hydroxypropylcellulose) (HPC)): 3 of 6

SMILES: Cc1ccc(C(=O)CCCN2CCOCC2)c(C)c1
- survivor count [2]: 2 of 4
- survivor count [3]: 1 of 4

SMILES: CCSCN(C)C
- survivor count (dose: 200.0 mg/kg/injection, schedule: Q01DX009 (ip), vehicle: saline): 3 of 6
- survivor count [3]: 2 of 6

SMILES: O=C1C(=O)c2ccccc2C(O)=C1CC=C(Cl)Cl
- survivor count [2]: 0 of 6
- survivor count (dose: 100.0 mg/kg/injection, schedule: Q01DX001 (ip), vehicle: water): 1 of 6
- survivor count (dose: 100.0 mg/kg/injection, schedule: Q04DX003 (ip), vehicle: water): 6 of 10
- survivor count (dose: 200.0 mg/kg/injection, schedule: Q01DX001 (ip), vehicle: saline): 0 of 6
- survivor count (dose: 200.0 mg/kg/injection, schedule: Q01DX001 (ip), vehicle: water): 0 of 6
- survivor count (dose: 200.0 mg/kg/injection, schedule: Q01DX001 (oral), vehicle: saline): 2 of 6
- survivor count [3]: 0 of 6
- survivor count (dose: 400.0 mg/kg/injection, schedule: Q01DX001 (oral), vehicle: saline): 0 of 6
- survivor count (dose: 800.0 mg/kg/injection, schedule: Q01DX001 (oral), vehicle: saline): 0 of 6

SMILES: N#CCc1ccc(Cl)cc1Cl
- survivor count (dose: 100.0 mg/kg/injection, schedule: Q04DX002 (ip), vehicle: Klucel (hydroxypropylcellulose) (HPC)): 0 of 3
- survivor count (dose: 200.0 mg/kg/injection, schedule: Q04DX002 (ip), vehicle: Klucel (hydroxypropylcellulose) (HPC)): 1 of 3
- survivor count (dose: 400.0 mg/kg/injection, schedule: Q04DX002 (ip), vehicle: Klucel (hydroxypropylcellulose) (HPC)): 0 of 3

SMILES: O=C(O)C1CC(n2cnc3c(=O)[nH]cnc32)CN1 (stereo not given)
- T/C (dose: 200.0 mg/kg/injection, schedule: Q04DX002 (ip), vehicle: saline with Tween-80): 125 % of control
